Measurements taken from patent US20150253330A1, “PRE-SELECTION OF SUBJECTS FOR THERAPEUTIC TREATMENT WITH AN HSP90 INHIBITOR BASED ON HYPOXIC STATUS” (Synta Pharmaceuticals Corp., priority 2012, published 2015).
Some of these results come from one statement about several compounds together.

Test system: KRAS mutant NSCLC cell lines
Assay: Combinatorial viability analysis in KRAS mutant NSCLC cell lines
Assay type: cell-based
Details: KRAS mutant NSCLC cells in vitro
Method: For combinatorial analysis, cells were seeded in 96-well plates at a predetermined, optimum growth density for 24 h prior to the addition of drug or vehicle to the culture medium. Drug combinations were applied at a non-constant ratio over a range of concentrations for 72 or 96 hours. […] Cell viability was assessed by either AlamarBlue® (Invitrogen, Carlsbad, Calif.) or CellTiter-Glo® assays and normalized to vehicle controls. For each combination study, the level of growth inhibition (fraction affected) is plotted relative to vehicle control. Data are presented as one relevant combination point and the corresponding single agent data for each cell line tested.

## CC[C@@]1(O)C(=O)OCc2c1cc1n(c2=O)Cc2cc3ccccc3nc2-1 [Camptothecin, reference compound]
  Increases in cell death when combined with ganetespib: up to 4 fold
